PubChem BioAssay AID1159578 – Peter MacCallum Cancer Centre – 2015
Screen: 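siRNA pools altering how lymphatic endothelial cells close a scratch wound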 (primary screen). System: human lymphatic endothelial cells. Knock-down reagent: siRNA pool against human genes, 40 nM. Duration: 48 h after transfection. Measured: 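Cells stained with dye and imaged after a scratch; covered wound area and nuclei counted, duplicates averaged, migration set against mock wells and turned into a robust z-score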. Scale: migration robust z-score: higher = faster migration into the scratch; migration relative to mock: higher = more scratch area covered than mock; nuclei per well: higher = more cells in the well. Call rule: 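Migration changed when robust z exceeds 2 or falls below -2 and mean nuclei number is at least 3300; otherwise not called changed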. Calls: active = migration changed; inactive = no migration change, or too few cells.
Here is a random part of about 18,000 reagents. About 1,030 of all reagents (5.7%) count as active. 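Inactive calls also include pools with fewer than 3300 nuclei, whose migration was not assessed.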 Raw values vary from plate to plate and are shown uncorrected. Entries without a mark were called inactive. The numbers tell different reagents against one gene apart.

target | pool no. | migration robust z-score | migration class with cell-count check | migration relative to mock | nuclei per well, duplicate mean
OPA3 | 1 | -0.8 | migration z between -2 and 2; enough cells | 0.65 | 4512
NDRG1 | 1 | -0.88 | migration z between -2 and 2; enough cells | 0.64 | 4782
SPON1 | 1 | 0.56 | migration z between -2 and 2; enough cells | 1.03 | 5772
KRTAP9-4 | 1 | -3.9 | under 3300 nuclei; migration not judged | -0.12 | 2733
MB | 1 | -0.93 | migration z between -2 and 2; enough cells | 0.64 | 5330
MKRN3 | 1 | -0.24 | migration z between -2 and 2; enough cells | 0.76 | 6493
FXYD6 | 1 | -1.14 | migration z between -2 and 2; enough cells | 0.58 | 4746
CENPT | 1 | 0.39 | migration z between -2 and 2; enough cells | 0.98 | 6978
ZBTB45 | 1 | 0.94 | migration z between -2 and 2; enough cells | 1.14 | 4444
CDKL4 | 1 | -0.36 | migration z between -2 and 2; enough cells | 0.74 | 4936
PRDM9 | 1 | 0.68 | migration z between -2 and 2; enough cells | 0.94 | 4642
CDH6 | 1 | -0.87 | migration z between -2 and 2; enough cells | 0.66 | 5677
BOC | 1 | -0.02 | migration z between -2 and 2; enough cells | 0.88 | 6469
SBSN | 1 | 0.83 | migration z between -2 and 2; enough cells | 1.1 | 5926
MTMR1 | 1 | -0.15 | migration z between -2 and 2; enough cells | 0.77 | 5029
RPS25 | 1 | 1.52 | migration z between -2 and 2; enough cells | 1.28 | 4714
USP27X | 1 | -1.02 | migration z between -2 and 2; enough cells | 0.61 | 4090
KRT8 | 1 | 0.34 | migration z between -2 and 2; enough cells | 0.98 | 6142
REV1 | 1 | -1.53 | migration z between -2 and 2; enough cells | 0.51 | 6668
SUPT16H | 1 | 0.42 | migration z between -2 and 2; enough cells | 0.88 | 5737
WDR62 | 1 | 0.59 | migration z between -2 and 2; enough cells | 1.04 | 5692
HAP1 | 1 | 0.95 | migration z between -2 and 2; enough cells | 1.12 | 5799
ZSCAN5A | 1 | 0.22 | migration z between -2 and 2; enough cells | 0.94 | 5346
EXD1 | 1 | 2.51 (active) | migration z above 2; enough cells | 1.54 | 6706
INSM2 | 1 | -2.12 (active) | migration z below -2; enough cells | 0.4 | 4154
CRTAM | 1 | 0.86 | migration z between -2 and 2; enough cells | 1.1 | 5857
TRIM43B | 1 | 0.39 | migration z between -2 and 2; enough cells | 0.88 | 5795
MS4A5 | 1 | -1.15 | migration z between -2 and 2; enough cells | 0.59 | 6076
XPR1 | 1 | 0.88 | migration z between -2 and 2; enough cells | 0.98 | 6533
PPT1 | 1 | 0.57 | migration z between -2 and 2; enough cells | 0.92 | 6814
SCGB3A1 | 1 | -1.36 | migration z between -2 and 2; enough cells | 0.53 | 5698
SMOC1 | 1 | 0.66 | migration z between -2 and 2; enough cells | 1.06 | 5820
CTBP2 | 1 | -1.66 | migration z between -2 and 2; enough cells | 0.48 | 6814
LAG3 | 1 | 0.68 | migration z between -2 and 2; enough cells | 0.94 | 5562
USP47 | 1 | 0.55 | migration z between -2 and 2; enough cells | 0.91 | 5360
KLHL5 | 1 | -0.78 | migration z between -2 and 2; enough cells | 0.68 | 5044
PLEKHA6 | 1 | 0.24 | migration z between -2 and 2; enough cells | 0.94 | 5865
RANBP6 | 1 | 2.09 (active) | migration z above 2; enough cells | 1.43 | 4890
NKX6-3 | 1 | 0.24 | migration z between -2 and 2; enough cells | 0.95 | 6378
UTY | 1 | 1.57 | migration z between -2 and 2; enough cells | 1.29 | 6088
NEDD1 | 1 | -0.55 | migration z between -2 and 2; enough cells | 0.75 | 4928
ESYT3 | 1 | -0.6 | migration z between -2 and 2; enough cells | 0.73 | 5839
MAD2L1 | 1 | -1.01 | migration z between -2 and 2; enough cells | 0.61 | 5040
CAP2 | 1 | 0.08 | migration z between -2 and 2; enough cells | 0.91 | 5616
SLFN5 | 1 | 0.1 | migration z between -2 and 2; enough cells | 0.91 | 7010
ADGRE2 | 1 | 0.36 | migration z between -2 and 2; enough cells | 0.88 | 5920
PGBD1 | 1 | 0.39 | migration z between -2 and 2; enough cells | 0.99 | 5706
SH3BP5 | 1 | 0.43 | migration z between -2 and 2; enough cells | 1 | 6083
TOP6BL | 1 | 2.16 (active) | migration z above 2; enough cells | 1.44 | 6334
AK9 | 1 | -0.02 | migration z between -2 and 2; enough cells | 0.88 | 6702
AK9 | 2 | -0.62 | migration z between -2 and 2; enough cells | 0.72 | 5572
AK9 | 3 | 1.05 | migration z between -2 and 2; enough cells | 1.16 | 6380
TDRD9 | 1 | 0.3 | migration z between -2 and 2; enough cells | 0.97 | 5442
NUP88 | 1 | 2.01 (active) | migration z above 2; enough cells | 1.41 | 5830
NME8 | 1 | 0.62 | migration z between -2 and 2; enough cells | 0.92 | 6150
GNA11 | 1 | -1.86 | migration z between -2 and 2; enough cells | 0.44 | 4173
ZSWIM2 | 1 | -0.65 | migration z between -2 and 2; enough cells | 0.68 | 4878

Records listed so far with an active call:
target | pool no. | migration robust z-score | migration class with cell-count check | migration relative to mock | nuclei per well, duplicate mean
EXD1 | 1 | 2.51 (active) | migration z above 2; enough cells | 1.54 | 6706
INSM2 | 1 | -2.12 (active) | migration z below -2; enough cells | 0.4 | 4154
RANBP6 | 1 | 2.09 (active) | migration z above 2; enough cells | 1.43 | 4890
TOP6BL | 1 | 2.16 (active) | migration z above 2; enough cells | 1.44 | 6334
NUP88 | 1 | 2.01 (active) | migration z above 2; enough cells | 1.41 | 5830
